Measured values published in the supplement of paper PMC10849652.
The other results are listed elsewhere or left out.

By UniProt entry, the sequences of proteins in these tests, tags left out. Where a name states a change or a piece, a line headed by the entry shows the natural chain unless it says otherwise.
UniProt P27816: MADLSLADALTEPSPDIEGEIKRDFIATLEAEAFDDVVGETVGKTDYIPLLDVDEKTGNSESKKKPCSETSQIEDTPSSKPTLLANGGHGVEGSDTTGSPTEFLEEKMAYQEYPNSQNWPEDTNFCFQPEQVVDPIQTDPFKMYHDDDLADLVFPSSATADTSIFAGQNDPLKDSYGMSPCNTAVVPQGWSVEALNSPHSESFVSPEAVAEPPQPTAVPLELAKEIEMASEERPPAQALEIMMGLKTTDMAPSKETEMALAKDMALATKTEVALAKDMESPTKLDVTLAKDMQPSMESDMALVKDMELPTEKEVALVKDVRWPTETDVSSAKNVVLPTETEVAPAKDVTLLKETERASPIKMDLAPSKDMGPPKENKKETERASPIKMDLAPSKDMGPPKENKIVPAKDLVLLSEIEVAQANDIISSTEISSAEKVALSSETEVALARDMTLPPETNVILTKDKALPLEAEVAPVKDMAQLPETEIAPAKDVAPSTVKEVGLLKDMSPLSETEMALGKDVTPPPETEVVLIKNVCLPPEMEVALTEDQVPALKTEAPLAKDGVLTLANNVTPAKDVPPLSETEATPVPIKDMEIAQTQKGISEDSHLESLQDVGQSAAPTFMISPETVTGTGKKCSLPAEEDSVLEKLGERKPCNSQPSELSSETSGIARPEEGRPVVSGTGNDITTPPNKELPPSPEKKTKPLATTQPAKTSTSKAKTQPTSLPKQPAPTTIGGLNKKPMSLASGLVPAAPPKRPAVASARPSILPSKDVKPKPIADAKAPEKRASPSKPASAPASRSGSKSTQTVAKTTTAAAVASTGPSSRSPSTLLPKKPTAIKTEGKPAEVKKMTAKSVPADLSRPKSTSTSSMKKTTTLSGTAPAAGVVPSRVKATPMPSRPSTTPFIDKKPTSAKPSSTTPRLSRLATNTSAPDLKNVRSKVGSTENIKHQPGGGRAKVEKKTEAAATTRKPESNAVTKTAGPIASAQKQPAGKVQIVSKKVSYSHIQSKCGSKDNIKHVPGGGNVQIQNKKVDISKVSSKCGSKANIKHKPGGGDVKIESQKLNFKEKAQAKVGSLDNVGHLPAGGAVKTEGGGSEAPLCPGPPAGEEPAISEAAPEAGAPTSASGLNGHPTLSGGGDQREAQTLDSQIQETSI
UniProt Q16706: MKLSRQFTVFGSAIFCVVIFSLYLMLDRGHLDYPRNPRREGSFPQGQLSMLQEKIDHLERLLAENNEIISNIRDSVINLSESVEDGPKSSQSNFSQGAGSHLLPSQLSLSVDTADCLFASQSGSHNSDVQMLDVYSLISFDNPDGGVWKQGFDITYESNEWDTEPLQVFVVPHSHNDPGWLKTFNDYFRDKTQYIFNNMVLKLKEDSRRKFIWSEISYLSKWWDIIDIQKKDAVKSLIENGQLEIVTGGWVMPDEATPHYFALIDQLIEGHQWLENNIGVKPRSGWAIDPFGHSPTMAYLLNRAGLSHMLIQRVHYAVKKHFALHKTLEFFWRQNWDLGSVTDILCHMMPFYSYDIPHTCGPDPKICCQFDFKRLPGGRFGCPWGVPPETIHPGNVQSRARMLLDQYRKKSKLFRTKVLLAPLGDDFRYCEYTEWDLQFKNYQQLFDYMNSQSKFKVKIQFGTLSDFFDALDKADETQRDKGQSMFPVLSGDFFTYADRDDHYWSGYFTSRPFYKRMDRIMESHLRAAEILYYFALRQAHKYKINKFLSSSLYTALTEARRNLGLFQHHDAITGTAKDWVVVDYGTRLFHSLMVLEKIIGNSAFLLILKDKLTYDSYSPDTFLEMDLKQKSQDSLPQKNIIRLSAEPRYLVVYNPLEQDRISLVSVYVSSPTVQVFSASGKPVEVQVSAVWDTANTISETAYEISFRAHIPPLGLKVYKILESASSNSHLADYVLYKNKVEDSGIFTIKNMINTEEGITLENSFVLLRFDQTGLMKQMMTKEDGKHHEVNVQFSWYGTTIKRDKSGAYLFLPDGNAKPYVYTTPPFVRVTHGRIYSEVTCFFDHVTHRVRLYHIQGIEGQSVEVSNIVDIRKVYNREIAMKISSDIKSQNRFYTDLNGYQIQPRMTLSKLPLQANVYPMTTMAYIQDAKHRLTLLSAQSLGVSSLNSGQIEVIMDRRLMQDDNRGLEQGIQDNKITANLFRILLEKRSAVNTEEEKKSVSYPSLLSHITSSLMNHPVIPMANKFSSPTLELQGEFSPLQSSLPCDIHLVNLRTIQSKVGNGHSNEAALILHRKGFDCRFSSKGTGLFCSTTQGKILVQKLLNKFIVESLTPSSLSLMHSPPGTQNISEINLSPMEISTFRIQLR
UniProt Q7L5Y9: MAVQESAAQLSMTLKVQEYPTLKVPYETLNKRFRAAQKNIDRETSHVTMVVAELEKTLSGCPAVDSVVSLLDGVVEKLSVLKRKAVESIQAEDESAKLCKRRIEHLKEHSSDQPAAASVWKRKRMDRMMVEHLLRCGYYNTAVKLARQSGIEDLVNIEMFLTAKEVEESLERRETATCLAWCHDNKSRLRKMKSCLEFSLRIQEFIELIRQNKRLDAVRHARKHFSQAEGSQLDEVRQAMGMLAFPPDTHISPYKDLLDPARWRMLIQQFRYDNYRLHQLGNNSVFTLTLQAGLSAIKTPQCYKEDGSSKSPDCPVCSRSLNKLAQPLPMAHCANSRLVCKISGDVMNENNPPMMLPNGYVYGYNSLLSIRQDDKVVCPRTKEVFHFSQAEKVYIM
UniProt Q8WZA0: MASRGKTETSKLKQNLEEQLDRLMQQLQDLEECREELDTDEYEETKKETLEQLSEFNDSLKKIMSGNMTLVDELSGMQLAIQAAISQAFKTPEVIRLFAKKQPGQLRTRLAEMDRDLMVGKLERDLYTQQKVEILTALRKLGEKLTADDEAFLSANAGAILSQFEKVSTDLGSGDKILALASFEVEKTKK
UniProt O75608: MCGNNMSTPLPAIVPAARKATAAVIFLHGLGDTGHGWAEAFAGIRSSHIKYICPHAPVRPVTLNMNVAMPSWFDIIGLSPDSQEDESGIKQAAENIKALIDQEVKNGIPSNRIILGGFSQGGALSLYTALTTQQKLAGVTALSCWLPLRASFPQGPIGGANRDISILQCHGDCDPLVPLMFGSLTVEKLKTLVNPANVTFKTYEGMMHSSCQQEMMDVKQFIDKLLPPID
UniProt O60476: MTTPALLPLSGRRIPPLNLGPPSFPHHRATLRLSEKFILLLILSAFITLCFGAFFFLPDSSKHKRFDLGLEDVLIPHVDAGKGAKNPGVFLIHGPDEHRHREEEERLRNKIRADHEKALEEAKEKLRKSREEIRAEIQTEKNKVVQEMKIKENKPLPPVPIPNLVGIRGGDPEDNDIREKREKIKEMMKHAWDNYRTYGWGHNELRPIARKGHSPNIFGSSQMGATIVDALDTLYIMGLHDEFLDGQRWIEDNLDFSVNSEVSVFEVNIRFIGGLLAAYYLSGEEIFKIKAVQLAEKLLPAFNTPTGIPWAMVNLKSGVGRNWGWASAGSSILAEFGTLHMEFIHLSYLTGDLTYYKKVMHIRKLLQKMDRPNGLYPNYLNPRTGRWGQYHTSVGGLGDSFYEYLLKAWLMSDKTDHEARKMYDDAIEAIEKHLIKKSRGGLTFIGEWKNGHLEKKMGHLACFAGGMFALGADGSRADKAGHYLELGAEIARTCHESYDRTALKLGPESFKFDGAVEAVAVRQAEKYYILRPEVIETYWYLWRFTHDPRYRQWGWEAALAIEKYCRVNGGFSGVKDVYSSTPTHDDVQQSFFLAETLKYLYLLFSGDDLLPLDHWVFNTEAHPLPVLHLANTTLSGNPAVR
UniProt O95232: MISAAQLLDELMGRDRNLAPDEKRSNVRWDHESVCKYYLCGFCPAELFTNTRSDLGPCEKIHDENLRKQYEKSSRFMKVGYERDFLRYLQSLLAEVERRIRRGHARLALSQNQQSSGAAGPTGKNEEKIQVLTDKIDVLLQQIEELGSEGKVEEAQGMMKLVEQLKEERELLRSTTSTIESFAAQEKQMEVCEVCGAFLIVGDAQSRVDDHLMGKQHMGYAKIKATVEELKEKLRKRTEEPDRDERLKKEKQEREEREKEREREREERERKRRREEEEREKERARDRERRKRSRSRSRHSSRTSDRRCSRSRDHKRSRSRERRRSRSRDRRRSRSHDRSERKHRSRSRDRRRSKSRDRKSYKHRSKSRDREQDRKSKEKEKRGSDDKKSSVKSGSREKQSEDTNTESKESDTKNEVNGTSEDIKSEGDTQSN
UniProt Q16539, whole entry, looked up: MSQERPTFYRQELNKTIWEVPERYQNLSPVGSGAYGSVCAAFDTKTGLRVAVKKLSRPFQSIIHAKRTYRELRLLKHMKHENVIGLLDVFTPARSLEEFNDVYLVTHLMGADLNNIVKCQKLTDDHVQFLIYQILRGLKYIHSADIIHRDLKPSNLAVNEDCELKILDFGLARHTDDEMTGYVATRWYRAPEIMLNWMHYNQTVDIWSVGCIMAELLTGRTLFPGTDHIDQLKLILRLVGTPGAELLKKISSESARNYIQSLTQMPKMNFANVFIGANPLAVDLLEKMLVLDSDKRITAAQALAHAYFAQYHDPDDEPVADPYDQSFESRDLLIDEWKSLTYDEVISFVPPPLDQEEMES
UniProt Q9NQ29: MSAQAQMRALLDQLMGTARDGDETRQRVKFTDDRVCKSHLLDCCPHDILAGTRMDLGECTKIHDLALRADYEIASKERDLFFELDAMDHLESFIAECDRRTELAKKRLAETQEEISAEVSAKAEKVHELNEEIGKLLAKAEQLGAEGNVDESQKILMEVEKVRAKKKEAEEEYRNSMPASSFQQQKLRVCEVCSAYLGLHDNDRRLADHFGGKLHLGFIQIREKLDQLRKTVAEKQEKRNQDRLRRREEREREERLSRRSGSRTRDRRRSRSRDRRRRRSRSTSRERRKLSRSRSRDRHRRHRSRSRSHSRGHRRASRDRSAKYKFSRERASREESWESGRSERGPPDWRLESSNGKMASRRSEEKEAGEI
UniProt Q9NZL9, whole entry, looked up: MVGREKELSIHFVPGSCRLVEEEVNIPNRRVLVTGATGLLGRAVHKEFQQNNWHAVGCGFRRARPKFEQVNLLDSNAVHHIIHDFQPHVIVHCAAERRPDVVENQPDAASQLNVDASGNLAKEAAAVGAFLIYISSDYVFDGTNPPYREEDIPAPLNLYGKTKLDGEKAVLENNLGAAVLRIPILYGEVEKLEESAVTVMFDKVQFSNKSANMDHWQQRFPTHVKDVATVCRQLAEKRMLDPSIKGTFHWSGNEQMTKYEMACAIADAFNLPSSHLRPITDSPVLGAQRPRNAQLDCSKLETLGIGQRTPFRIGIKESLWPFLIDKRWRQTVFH
UniProt Q9UI95, whole entry, looked up: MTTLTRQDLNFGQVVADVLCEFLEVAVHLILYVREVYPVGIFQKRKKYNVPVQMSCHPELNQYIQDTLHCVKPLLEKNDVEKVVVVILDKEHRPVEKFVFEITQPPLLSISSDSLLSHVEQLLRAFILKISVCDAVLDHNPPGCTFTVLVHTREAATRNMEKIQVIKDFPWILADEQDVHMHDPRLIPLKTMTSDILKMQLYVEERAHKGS
UniProt Q9Y6D9: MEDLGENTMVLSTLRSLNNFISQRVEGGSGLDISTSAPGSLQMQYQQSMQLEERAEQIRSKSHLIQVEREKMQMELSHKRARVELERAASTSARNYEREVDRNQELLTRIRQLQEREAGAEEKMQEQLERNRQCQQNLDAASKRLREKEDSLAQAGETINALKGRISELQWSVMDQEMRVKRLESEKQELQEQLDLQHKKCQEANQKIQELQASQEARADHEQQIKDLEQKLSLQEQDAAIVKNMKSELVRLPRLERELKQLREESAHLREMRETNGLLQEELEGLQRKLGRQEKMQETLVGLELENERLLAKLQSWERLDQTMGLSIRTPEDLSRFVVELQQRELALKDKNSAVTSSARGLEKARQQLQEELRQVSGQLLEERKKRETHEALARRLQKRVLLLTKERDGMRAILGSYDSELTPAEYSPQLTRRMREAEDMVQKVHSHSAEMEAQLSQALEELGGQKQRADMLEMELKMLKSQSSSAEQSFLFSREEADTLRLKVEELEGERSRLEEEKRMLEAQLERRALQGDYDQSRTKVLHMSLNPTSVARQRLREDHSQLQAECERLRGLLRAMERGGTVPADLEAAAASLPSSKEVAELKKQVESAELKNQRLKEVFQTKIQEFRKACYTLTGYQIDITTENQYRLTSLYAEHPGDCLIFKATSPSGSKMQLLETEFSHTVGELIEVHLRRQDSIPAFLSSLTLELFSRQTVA
UniProt Q9H0U3: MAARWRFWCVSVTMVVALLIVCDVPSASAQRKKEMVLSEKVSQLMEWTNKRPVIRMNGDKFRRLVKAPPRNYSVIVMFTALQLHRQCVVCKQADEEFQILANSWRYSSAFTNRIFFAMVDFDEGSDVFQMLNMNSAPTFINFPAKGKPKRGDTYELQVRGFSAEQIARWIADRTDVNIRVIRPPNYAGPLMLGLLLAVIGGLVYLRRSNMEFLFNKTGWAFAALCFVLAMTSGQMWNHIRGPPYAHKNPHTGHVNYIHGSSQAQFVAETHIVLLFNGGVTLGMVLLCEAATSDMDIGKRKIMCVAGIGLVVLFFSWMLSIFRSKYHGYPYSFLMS

Legend:
Experiment in all cases: log2 fold change, soluble protein after heating vs DMSO (PISA); higher = thermal stabilisation; K562 lysate, 10 uM; active = over 0.2 and 3.5 SD of the protein, either way, in both replicates (recomputed)
[1] = compound: CCCS(=O)(=O)Nc1ccc(F)c(C(=O)c2c[nH]c3ncc(-c4ccc(Cl)cc4)cc23)c1F [vemurafenib]
How it was run: (§1)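 Dounce homogenisation of K562 pellets in PBS pH 7.4 with 1 mM MgCl2 produced a crude extract, used at 1 mg/mL protein. Exposure to 10 μM compound lasted 30 min, and aliquots were then heated for 3 min across 48°C-58°C, pooled and brought to 0.5% NP-40 at 4°C. The supernatant after 21,000xg for 90 min was quantified by TMTpro 16plex LC-MS/MS with channel sums equalised. Duplicate values are given as log-two fold change in thermal stability relative to solvent controls.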

[2] = compound: CCCS(=O)(=O)Nc1ccc(F)c(C(=O)c2c[nH]c3ncc(Cl)cc23)c1F
How it was run: as §1

[3] = compound: CCN(CCCOc1ccc2c(Nc3cc(CC(=O)Nc4cccc(F)c4)[nH]n3)ncnc2c1)CCOP(=O)(O)O [barasertib]
How it was run: as §1

[4] = compound: CC[C@@H]1C(=O)N(C)c2cnc(Nc3ccc(C(=O)NC4CCN(C)CC4)cc3OC)nc2N1C1CCCC1
How it was run: as §1

[5] = compound: CC[C@@H]1C(=O)N(C)c2cnc(Nc3ccc(C(=O)N[C@H]4CC[C@H](N5CCN(CC6CC6)CC5)CC4)cc3OC)nc2N1C(C)C [volasertib]
How it was run: as §1

[6] = compound: CCn1c(C(=O)N(C2CC2)C2CC2)cc2c3c(ncn3C)c(Nc3cc(C)n(C)n3)nc21
How it was run: as §1

[7] = compound: CCn1cc(-c2ccnc3[nH]c(-c4cccc(CN(C)C)c4)cc23)c(-c2ccc(NC(=O)N(C)C)cc2)n1
How it was run: as §1

[8] = compound: CN1CCC(CNc2ccc3ncc(-c4cccc(OC(F)(F)F)c4)n3n2)CC1
How it was run: as §1

[9] = compound: CN1CCN(CCOc2cc(OC3CCOCC3)c3c(Nc4c(Cl)ccc5c4OCO5)ncnc3c2)CC1 [saracatinib]
How it was run: as §1

[10] = compound: CN1CCN(c2nc(C3=C(c4c[nH]c5ccccc45)C(=O)NC3=O)c3ccccc3n2)CC1 [sotrastaurin]
How it was run: as §1

[11] = compound: CN1CC[C@H](c2c(O)cc(O)c3c(=O)cc(-c4ccccc4Cl)oc23)[C@H](O)C1 [alvocidib]
How it was run: as §1

[12] = compound: CN1CCc2c(c3ccccc3n2Cc2ccc(C(=O)NO)cc2)C1 [Tubastatin A]
How it was run: as §1

[13] = compound: CNC(=O)C1=CC=CC=C1NC2=NC(=NC=C2Cl)NC3=C(C=C(C=C3)N4CCOCC4)OC
How it was run: as §1

[14] = compound: CNC(=O)c1ccc(Nc2ncc(C(F)(F)F)c(NCc3nccnc3N(C)S(C)(=O)=O)n2)cc1 [defactinib]
How it was run: as §1

[15] = compound: CNc1nc(-c2ccc3c(N)n[nH]c3c2)cc(N2C[C@@H](C(=O)NC3CCCCC3)CC[C@H]2C)n1
How it was run: as §1

[16] = compound: COC(=O)N[C@@H](C)CNc1nccc(-c2cn(C(C)C)nc2-c2cc(Cl)cc(NS(C)(=O)=O)c2F)n1 [encorafenib]
How it was run: as §1

[17] = compound: COC(=O)[C@H](CCSC)NC(=O)C1=C(C=C(C=C1)NC[C@H](CS)N)C2=CC=CC=C2
How it was run: as §1

[18] = compound: COc1cc(Nc2ncc3c(n2)-c2ccc(Cl)cc2C(c2c(F)cccc2OC)=NC3)ccc1C(=O)O [alisertib]
How it was run: as §1

[19] = compound: COc1cc2nc(-c3cc(F)ccc3O)nc(N[C@@H]3CNC[C@H]3C(C)(C)O)c2cc1OC
How it was run: as §1

[20] = compound: COc1cc2ncnc(Nc3ccc(F)c(Cl)c3)c2cc1OCCCN1CCOCC1 [gefitinib]
How it was run: as §1

Measured: log2 fold change

MAP4 (UniProt P27816)
inactive: [1] 0.01 | [2] -0.017 | [3] -0.016 | [4] 0.064 | [5] 0.033 | [6] -0.022 | [7] -0.042 | [8] 0.036 | [9] -0.009 | [10] -0.027 | [11] -0.023 | [12] 0.043 | [13] 0.016 | [14] -0.02 | [15] 0.037 | [16] -0.024 | [17] -0.031 | [18] -0.007 | [19] 0.014 | [20] -0.02

MAK16 (UniProt Q9BXY0)
inactive: [1] -0.092 | [2] 0.036 | [3] 0.028 | [4] 0.019 | [5] -0.011 | [6] 0.028 | [7] 0.013 | [8] -0.07 | [9] -0.013 | [10] -0.054 | [11] -0.018 | [12] 0.085 | [13] -0.095 | [14] 0.071 | [15] -0.071 | [16] -0.022 | [17] 0.021 | [18] -0.092 | [19] -0.02 | [20] -0.118

MAN2A1 (UniProt Q16706)
inactive: [1] 0.025 | [2] -0.026 | [3] 0.007 | [4] 0.01 | [5] 0.02 | [6] 0.009 | [7] -0.04 | [8] -0.044 | [9] 0.011 | [10] 0.034 | [11] -0.053 | [12] 0.031 | [13] 0.013 | [14] 0.033 | [15] -0.041 | [16] -0.004 | [17] -0.071 | [18] -0.012 | [19] 0.011 | [20] 0.026

MAEA (UniProt Q7L5Y9)
inactive: [1] -0.052 | [2] 0.007 | [3] 0.033 | [4] -0.055 | [5] -0.029 | [6] 0.024 | [7] 0.04 | [8] 0.02 | [9] -0.016 | [10] -0.004 | [11] 0.014 | [12] -0.076 | [13] 0.032 | [14] -0.011 | [15] -0.048 | [16] -0.024 | [17] 0.042 | [18] 0 | [19] -0.017 | [20] -0.004

LZIC isoform 2 (UniProt Q8WZA0)
inactive: [1] -0.058 | [2] -0.011 | [3] -0.017 | [4] 0.038 | [5] 0.006 | [6] 0.003 | [7] 0.013 | [8] 0.014 | [9] 0.022 | [10] -0.032 | [11] 0.023 | [12] 0.042 | [13] 0.004 | [14] 0.007 | [15] 0.023 | [16] -0.013 | [17] -0.044 | [18] 0.002 | [19] -0.002 | [20] -0.018

LYPLA1 (UniProt O75608)
inactive: [1] -0.011 | [2] -0.051 | [3] 0.079 | [4] -0.035 | [5] 0.021 | [6] 0.014 | [7] -0.007 | [8] -0.09 | [9] -0.021 | [10] -0.019 | [11] 0.046 | [12] 0.044 | [13] -0.011 | [14] -0.004 | [15] -0.009 | [16] 0 | [17] -0.065 | [18] 0.019 | [19] -0.061 | [20] -0.048

MAN1A2 (UniProt O60476)
inactive: [1] -0.02 | [2] 0.008 | [3] 0.044 | [4] 0.039 | [5] 0.002 | [6] -0.014 | [7] 0.144 | [8] -0.098 | [9] -0.006 | [10] 0.041 | [11] 0.078 | [12] 0.095 | [13] 0.012 | [14] -0.025 | [15] -0.003 | [16] 0.045 | [17] -0.013 | [18] -0.06 | [19] 0.043 | [20] -0.023

LUC7L3 (UniProt O95232)
inactive: [1] 0.023 | [2] 0.003 | [3] 0.014 | [4] 0.064 | [5] -0.005 | [6] -0.019 | [7] -0.047 | [8] 0.034 | [9] -0.017 | [10] 0.051 | [11] -0.137 | [12] 0.031 | [13] -0.023 | [14] -0.032 | [15] 0.064 | [16] -0.012 | [17] -0.024 | [18] -0.024 | [19] 0.009 | [20] 0.021

MAP2K1 (UniProt Q02750)
inactive: [1] 0.056 | [2] 0.194 | [3] 0.022 | [4] -0.043 | [5] -0.051 | [6] -0.057 | [7] 0.281 | [8] -0.041 | [9] 0.032 | [10] 0.015 | [11] 0.06 | [12] -0.011 | [13] 0.066 | [14] 0.013 | [15] 0.028 | [16] -0.07 | [17] -0.063 | [18] -0.036 | [19] 0.021 | [20] 0.029

MAPK14 isoform 2 (UniProt Q16539)
inactive: [1] 0.189 | [2] 0.046 | [3] 0.079 | [4] -0.076 | [5] -0.078 | [6] 0.003 | [7] 0.303 | [8] -0.101 | [9] 0.192 | [10] -0.029 | [11] 0.154 | [12] -0.121 | [13] 0.299 | [14] 0.01 | [15] -0.041 | [16] 0.454 | [17] 0.257 | [18] -0.065 | [19] -0.004 | [20] 0.144

LUC7L (UniProt Q9NQ29)
active: [11] -0.259
inactive: [1] 0.019 | [2] -0.014 | [3] 0.024 | [4] -0.072 | [5] 0.028 | [6] -0.004 | [7] 0.172 | [8] -0.008 | [9] -0.013 | [10] -0.068 | [12] 0.015 | [13] -0.117 | [14] -0.075 | [15] 0.002 | [16] 0.065 | [17] -0.039 | [18] 0.033 | [19] 0.01 | [20] 0.037

Quoted at random: two entries already listed, in no set order.
LUC7L (UniProt Q9NQ29)
active: [11] -0.259
inactive: [1] 0.019 | [2] -0.014 | [3] 0.024 | [4] -0.072 | [5] 0.028 | [6] -0.004 | [7] 0.172 | [8] -0.008 | [9] -0.013 | [10] -0.068 | [12] 0.015 | [13] -0.117 | [14] -0.075 | [15] 0.002 | [16] 0.065 | [17] -0.039 | [18] 0.033 | [19] 0.01 | [20] 0.037

LUC7L3 (UniProt O95232)
inactive: [1] 0.023 | [2] 0.003 | [3] 0.014 | [4] 0.064 | [5] -0.005 | [6] -0.019 | [7] -0.047 | [8] 0.034 | [9] -0.017 | [10] 0.051 | [11] -0.137 | [12] 0.031 | [13] -0.023 | [14] -0.032 | [15] 0.064 | [16] -0.012 | [17] -0.024 | [18] -0.024 | [19] 0.009 | [20] 0.021

More records follow.

MAT2B (UniProt Q9NZL9)
inactive: [1] 0.036 | [2] 0.016 | [3] 0.001 | [4] -0.019 | [5] -0.006 | [6] -0.015 | [7] 0.13 | [8] 0 | [9] -0.018 | [10] 0.013 | [11] -0.028 | [12] 0.063 | [13] -0.013 | [14] 0.003 | [15] -0.01 | [16] -0.009 | [17] -0.006 | [18] 0.032 | [19] 0.016 | [20] -0.006

MAD2L2 (UniProt Q9UI95)
inactive: [1] -0.028 | [2] 0.246 | [3] 0.013 | [4] -0.065 | [5] 0.044 | [6] 0.089 | [7] -0.036 | [8] -0.051 | [9] 0.079 | [10] -0.006 | [11] -0.026 | [12] 0.051 | [13] 0.033 | [14] 0.06 | [15] 0.064 | [16] -0.069 | [17] 0.022 | [18] 0.04 | [19] 0.135 | [20] -0.006

MAD1L1 (UniProt Q9Y6D9)
inactive: [1] -0.017 | [2] 0.034 | [3] 0.043 | [4] 0.041 | [5] -0.035 | [6] 0.019 | [7] -0.03 | [8] -0.034 | [9] 0.004 | [10] -0.045 | [11] -0.013 | [12] -0.004 | [13] 0.02 | [14] -0.032 | [15] 0.212 | [16] 0.067 | [17] 0.105 | [18] 0.008 | [19] -0.029 | [20] -0.007

MARK2 (UniProt E9PC69)
inactive: [1] 0.015 | [2] -0.005 | [3] 0.027 | [4] 0 | [5] 0.028 | [6] -0.015 | [7] -0.013 | [8] -0.22 | [9] 0.021 | [10] -0.026 | [11] -0.032 | [12] -0.049 | [13] -0.187 | [14] -0.087 | [15] 0.056 | [16] 0.181 | [17] 0.211 | [18] 0.021 | [19] 0.01 | [20] -0.03

MAGT1 (UniProt Q9H0U3)
inactive: [1] 0 | [2] 0 | [3] 0.004 | [4] 0.071 | [5] -0.013 | [6] -0.046 | [7] -0.079 | [8] 0.007 | [9] -0.004 | [10] 0.028 | [11] -0.025 | [12] -0.015 | [13] -0.002 | [14] 0.061 | [15] 0.025 | [16] 0.027 | [17] -0.003 | [18] -0.001 | [19] 0.009 | [20] -0.017
